These are yes or no findings as the source states them, for the method shown. Binding seen in cells or lysates may run through a third protein. Some results given as binding are weak or reduced against the parent protein; the word gives no strength.
Tests used:
[1] = target: CSN5, mouse (mouse (endogenous in colon tissue)) (UniProt O35864); assay: co-IP; colon tissue lysates of AOM/DSS mice precipitated with anti-CSN5 or anti-Cullin1 antibodies (mouse IgG as control), protein A/G-agarose, western blot; several doses of CAPE
[2] = target: Cullin1, mouse (mouse (endogenous in colon tissue)) (UniProt Q9WTX6); assay: as above
[3] = target: CSN5 (human (endogenous in THP-1)) (UniProt Q92905); assay: co-IP; THP-1 cell lysates precipitated with anti-CSN5 or anti-Cullin1 antibodies (mouse IgG as control), protein A/G-agarose, western blot; time course of CAPE treatment
[4] = target: Cullin1 (human (endogenous in THP-1)) (UniProt Q13616); assay: as above
[5] = target: ASC (human (endogenous in THP-1)) (UniProt Q9ULZ3); assay: co-IP; total cell lysates precipitated with anti-ASC antibody (2 ug, 1 h, 4°C; mouse IgG as control), protein A/G-agarose overnight at 4°C, low-salt washes, western blot; cells treated with LPS + ATP, CAPE at several doses, with or without rotenone

Chains of the proteins cited; added tags and fusions are not shown.
UniProt O35864: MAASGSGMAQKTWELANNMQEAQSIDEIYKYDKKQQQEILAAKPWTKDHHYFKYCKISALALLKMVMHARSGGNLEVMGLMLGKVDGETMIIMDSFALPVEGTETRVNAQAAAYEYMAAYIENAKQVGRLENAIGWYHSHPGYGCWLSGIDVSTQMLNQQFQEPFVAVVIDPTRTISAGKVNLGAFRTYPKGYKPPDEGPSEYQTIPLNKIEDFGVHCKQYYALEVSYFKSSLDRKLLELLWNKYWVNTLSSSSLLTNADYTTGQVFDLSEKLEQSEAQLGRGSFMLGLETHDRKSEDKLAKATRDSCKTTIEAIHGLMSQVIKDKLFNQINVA
UniProt Q9WTX6: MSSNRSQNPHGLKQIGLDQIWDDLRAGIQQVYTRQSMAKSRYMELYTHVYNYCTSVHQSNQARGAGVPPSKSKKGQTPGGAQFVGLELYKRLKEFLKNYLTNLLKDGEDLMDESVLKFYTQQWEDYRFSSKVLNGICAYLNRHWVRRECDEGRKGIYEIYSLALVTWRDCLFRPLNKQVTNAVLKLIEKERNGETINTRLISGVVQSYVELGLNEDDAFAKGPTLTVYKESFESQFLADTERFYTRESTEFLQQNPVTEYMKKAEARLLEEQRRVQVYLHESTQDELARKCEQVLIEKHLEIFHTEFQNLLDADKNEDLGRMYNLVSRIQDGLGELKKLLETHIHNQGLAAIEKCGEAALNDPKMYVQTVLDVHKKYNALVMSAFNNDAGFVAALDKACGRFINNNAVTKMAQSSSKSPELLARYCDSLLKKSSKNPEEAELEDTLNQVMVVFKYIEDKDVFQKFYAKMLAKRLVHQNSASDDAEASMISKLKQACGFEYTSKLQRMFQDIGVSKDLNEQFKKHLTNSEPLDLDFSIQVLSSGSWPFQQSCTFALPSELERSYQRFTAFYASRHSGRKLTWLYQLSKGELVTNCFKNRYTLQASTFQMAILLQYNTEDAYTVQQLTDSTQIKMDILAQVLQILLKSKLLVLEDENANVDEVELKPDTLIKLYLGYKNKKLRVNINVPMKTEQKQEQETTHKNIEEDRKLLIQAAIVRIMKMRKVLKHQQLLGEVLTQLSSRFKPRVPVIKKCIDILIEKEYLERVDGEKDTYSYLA
UniProt Q92905: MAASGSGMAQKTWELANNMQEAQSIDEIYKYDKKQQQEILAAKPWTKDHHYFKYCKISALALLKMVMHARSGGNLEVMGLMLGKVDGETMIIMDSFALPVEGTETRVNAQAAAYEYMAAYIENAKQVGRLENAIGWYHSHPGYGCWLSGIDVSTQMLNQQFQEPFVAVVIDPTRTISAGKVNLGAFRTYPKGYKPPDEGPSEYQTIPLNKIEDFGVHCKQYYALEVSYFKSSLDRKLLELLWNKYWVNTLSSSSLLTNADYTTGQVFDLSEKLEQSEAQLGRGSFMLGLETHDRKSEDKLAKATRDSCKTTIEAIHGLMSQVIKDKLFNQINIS
UniProt Q13616: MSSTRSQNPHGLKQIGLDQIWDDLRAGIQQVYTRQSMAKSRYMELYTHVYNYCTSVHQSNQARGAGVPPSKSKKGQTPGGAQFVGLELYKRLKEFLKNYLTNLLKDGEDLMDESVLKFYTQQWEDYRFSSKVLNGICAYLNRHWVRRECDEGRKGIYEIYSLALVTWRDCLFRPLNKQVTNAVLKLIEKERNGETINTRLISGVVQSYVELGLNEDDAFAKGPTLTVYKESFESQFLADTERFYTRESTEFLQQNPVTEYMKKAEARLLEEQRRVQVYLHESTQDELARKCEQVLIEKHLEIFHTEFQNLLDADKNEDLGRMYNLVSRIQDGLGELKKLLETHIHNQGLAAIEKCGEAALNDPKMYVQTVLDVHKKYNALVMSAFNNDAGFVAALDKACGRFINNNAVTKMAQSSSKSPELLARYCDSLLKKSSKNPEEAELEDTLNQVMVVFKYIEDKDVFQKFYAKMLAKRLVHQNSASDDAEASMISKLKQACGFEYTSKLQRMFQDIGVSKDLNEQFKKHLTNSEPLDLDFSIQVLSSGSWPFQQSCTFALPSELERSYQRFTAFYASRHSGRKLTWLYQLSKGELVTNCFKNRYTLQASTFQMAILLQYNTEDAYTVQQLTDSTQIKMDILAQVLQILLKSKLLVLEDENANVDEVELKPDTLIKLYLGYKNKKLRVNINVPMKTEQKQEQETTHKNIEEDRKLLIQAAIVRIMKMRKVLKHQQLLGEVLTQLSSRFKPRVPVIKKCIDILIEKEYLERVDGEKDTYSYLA
UniProt Q9ULZ3: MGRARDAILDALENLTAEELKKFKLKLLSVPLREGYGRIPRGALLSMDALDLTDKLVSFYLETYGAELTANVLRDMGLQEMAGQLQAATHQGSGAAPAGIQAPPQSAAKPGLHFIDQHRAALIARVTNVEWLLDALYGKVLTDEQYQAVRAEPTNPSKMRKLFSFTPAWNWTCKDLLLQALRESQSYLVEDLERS
UniProt Q8R4B8: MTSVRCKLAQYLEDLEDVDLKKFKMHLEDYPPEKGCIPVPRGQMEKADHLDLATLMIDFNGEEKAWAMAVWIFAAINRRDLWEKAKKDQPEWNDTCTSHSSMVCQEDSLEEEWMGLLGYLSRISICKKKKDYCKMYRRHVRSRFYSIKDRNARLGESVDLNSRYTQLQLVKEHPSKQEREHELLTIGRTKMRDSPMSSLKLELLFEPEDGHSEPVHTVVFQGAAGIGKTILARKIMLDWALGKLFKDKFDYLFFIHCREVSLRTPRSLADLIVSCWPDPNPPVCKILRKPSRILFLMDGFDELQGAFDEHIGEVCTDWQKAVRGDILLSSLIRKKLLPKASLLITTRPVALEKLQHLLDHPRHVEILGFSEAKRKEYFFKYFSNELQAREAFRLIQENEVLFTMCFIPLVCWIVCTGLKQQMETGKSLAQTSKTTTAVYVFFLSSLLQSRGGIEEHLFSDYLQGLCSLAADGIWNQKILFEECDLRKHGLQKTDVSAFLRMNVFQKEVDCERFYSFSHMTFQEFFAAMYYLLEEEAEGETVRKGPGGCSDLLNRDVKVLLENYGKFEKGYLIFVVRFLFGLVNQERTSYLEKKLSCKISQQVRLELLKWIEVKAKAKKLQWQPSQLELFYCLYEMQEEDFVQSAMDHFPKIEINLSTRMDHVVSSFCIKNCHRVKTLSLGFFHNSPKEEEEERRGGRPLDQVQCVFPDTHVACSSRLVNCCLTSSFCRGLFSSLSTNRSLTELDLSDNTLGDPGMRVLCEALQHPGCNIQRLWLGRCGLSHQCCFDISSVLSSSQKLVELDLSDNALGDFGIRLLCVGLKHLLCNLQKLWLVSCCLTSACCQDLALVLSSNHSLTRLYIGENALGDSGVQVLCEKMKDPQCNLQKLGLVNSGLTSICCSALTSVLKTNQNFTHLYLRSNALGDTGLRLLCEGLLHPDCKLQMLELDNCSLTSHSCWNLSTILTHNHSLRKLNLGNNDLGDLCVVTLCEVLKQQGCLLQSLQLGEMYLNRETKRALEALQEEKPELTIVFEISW
UniProt Q96P20: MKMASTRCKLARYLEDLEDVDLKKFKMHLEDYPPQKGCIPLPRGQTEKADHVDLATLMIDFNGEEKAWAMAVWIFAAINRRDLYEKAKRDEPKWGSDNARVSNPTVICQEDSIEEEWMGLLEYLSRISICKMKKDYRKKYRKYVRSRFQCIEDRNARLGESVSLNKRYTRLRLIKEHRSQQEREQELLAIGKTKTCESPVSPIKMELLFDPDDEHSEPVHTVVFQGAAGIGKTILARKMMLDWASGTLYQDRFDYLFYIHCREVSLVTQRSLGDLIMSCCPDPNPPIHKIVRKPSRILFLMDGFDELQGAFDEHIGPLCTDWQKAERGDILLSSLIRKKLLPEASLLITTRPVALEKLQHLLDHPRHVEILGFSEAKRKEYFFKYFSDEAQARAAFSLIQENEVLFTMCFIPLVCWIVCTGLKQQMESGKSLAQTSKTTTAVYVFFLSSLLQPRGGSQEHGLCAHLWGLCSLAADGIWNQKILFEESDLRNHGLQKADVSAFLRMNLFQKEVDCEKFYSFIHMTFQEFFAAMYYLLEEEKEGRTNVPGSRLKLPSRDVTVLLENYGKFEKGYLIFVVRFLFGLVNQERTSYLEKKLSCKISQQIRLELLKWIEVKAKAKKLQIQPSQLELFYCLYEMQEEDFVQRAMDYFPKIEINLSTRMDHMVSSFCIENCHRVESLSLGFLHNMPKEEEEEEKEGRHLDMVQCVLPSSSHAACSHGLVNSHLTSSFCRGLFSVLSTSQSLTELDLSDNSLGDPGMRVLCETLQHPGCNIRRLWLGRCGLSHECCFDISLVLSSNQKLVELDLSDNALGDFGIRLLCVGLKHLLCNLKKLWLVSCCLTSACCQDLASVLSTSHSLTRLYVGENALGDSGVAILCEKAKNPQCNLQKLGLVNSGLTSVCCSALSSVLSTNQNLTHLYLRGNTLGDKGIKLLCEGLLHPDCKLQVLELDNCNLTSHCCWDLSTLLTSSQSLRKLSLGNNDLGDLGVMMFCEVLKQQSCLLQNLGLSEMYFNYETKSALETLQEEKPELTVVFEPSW
UniProt P29466: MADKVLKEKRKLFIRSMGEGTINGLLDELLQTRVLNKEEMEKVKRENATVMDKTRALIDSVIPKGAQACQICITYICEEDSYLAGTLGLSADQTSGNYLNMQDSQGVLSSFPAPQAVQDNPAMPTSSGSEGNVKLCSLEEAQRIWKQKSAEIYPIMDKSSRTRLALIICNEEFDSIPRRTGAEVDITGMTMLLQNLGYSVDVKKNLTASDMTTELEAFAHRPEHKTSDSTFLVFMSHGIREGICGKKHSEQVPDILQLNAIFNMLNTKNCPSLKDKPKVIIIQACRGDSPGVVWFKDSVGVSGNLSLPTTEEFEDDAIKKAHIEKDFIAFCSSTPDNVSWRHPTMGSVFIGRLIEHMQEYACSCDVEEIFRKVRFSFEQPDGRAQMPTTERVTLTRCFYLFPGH

## NOD-like receptor protein 3 (NLRP3), mouse (from UniProt Q8R4B8 1-1033)
[1]
  binding: binds
[2]
  binding: binds

## NOD-like receptor protein 3 (NLRP3) (from UniProt Q96P20 1-1036)
[3]
  binding: binds
[4]
  binding: binds

## pro-caspase-1 (from UniProt P29466 1-404)
[5]
  binding: binds

Source: paper PMC7218129
